Test results reported in patent US10517842B2, “Methods of modulating miRNA levels and compositions for use in the same” (Los Angeles Biomedical Research Institute at Harbor-UCLA …, priority 2017, dated 2019).
At least one structure is not confirmed: it was looked up by name or label, or the drawing left a doubt.

System: miR-29c
Assay: Quantitative RT-PCR (TaqMan miRNA assay), cellular and secreted miRNA in LSMC
Format: cell-based, human
Details: BIBF 1120 0.5 μM, 48 hours
Procedure: Total RNA was extracted from LSMC using RNAzol (GeneCopoeia, Rockville, Md.) and their quantity and quality was determined (ND-1000 Spectrophotometer, NanoDrop Technologies, Wilmington, Del.) as previously described (Chuang & Khorram, “miR-200c Regulates IL8 Expression by Targeting IKBKB: A Potential Mediator of Inflammation in Leiomyoma Pathogenesis,” PloS one (2014) 9:e95370). For medium miRNA extraction, 5 pg of synthetic miR-1 from Caenorhabditis elegans (cel-miR-1) was added as a spike-in control for purification efficiency. Subsequently, 2 μg or 10 ng (for miRNA) was reverse transcribed using random primers for CCND1, CDK2, COL1A1, COL3A1, TGF-β3, DNMT1 and EZH2 or specific primers for miR-29c and miR-200c according to the manufacturer's guidelines (Applied Biosystems, Carlsbad, Calif.). Quantitative RT-PCR was carried out using SYBR gene expression master mix or TaqMan miRNA expression assays (Applied Biosystems). […] The level of mRNAs and expression of cellular and secreted miRNA was determined using the Invitrogen StepOne System with 18S, RNU6B and cel-miR-1 used for normalization respectively. All reactions were run in triplicate and relative expression was analyzed with the comparative cycle threshold method (2^−ΔΔCT) according to the manufacturer (Applied Biosystems). Values were expressed as fold change compared to the control group.

COC(=O)c1ccc2c(c1)NC(=O)/C2=C(\Nc1ccc(N(C)C(=O)CN2CCN(C)CC2)cc1)c1ccccc1 [BIBF 1120]
miR-29c level: not affected
